Our source for the binding values is article PMC3366916, “Characterization of a Conserved Interaction between DNA Glycosylase and ParA in Mycobacterium smegmatis and M. tuberculosis” (PLoS ONE, 2012).

Chains of the proteins cited; added tags and fusions are not shown. Lines headed by an entry give the natural chain unless they say otherwise; changes in a name come on top.
UniProt A0R7J4: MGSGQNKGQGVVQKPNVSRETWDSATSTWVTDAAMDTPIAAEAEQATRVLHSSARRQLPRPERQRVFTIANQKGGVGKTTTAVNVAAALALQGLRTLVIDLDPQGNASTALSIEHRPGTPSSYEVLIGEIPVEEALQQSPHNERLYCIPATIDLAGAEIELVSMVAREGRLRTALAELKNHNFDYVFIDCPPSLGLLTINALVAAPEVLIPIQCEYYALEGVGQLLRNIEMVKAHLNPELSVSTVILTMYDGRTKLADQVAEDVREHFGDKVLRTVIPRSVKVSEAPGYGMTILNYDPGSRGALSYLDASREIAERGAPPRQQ

Assay [1] addresses T1, His-tagged MsTAG (M. smegmatis) (UniProt A0R2E4).
T1 sequence: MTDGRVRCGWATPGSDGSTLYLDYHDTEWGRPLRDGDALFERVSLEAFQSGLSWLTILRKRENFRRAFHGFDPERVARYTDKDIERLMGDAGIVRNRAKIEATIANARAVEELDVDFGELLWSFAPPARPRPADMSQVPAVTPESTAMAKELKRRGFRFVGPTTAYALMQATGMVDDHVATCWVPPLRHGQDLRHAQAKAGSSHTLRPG
The assay can be described thus: pull-down; equimolar GST-MsParA and His-tagged MsTAG mixed 2 h at 4°C in 20 mM Tris-HCl, 500 mM NaCl, 5 mM imidazole, pH 7.9; captured on Ni-NTA agarose, eluted with 250 mM imidazole; blot with anti-GST; both purified.

Assay [2] has as its target MsParA (Ms6939), bacterial two-hybrid fusion (M. smegmatis). The assay can be described thus: two-hybrid; bacterial two-hybrid (BacterioMatch II, pBT and pTRG, E. coli XR reporter strain); growth on Selective Screening Medium with 5 mM 3-AT and 8 µg/ml streptomycin.
Assay [3] deals with MsParA (Ms6939), endogenous in M. smegmatis (M. smegmatis (endogenous in M. smegmatis)) (UniProt A0R7J4). The assay can be described thus: co-IP; M. smegmatis cells with the TAG expression plasmid fixed with 1% formaldehyde; extract in TBSTT buffer incubated with MsParA antiserum and protein A Sepharose at 4°C; blot with anti-MsTAG antibody.

Positions count from the first letter of the chain named. In names and notes the source's numbering stands. Results are given in words; binding and its absence hold for the method and conditions named. Binding can be weak; no strength is given. Sequences can lack the tags named with a protein. For some of these results: Binding seen in cells or lysates may run through a third protein.

GST-MsParA (from UniProt A0R7J4): the binding result in assay [1] was “binds”.

B1: 3-methyladenine DNA glycosylase I MsTAG (Ms5082), bacterial two-hybrid fusion (enzyme, UniProt A0R2E4 1-209)
chain: T1 sequence
As to B1, the binding result in assay [2] is reported as “binds”.

B2: MsTAG-E46A expressed in M. smegmatis (enzyme, UniProt A0R2E4 1-209)
chain: T1 sequence with E46A
In the case of B2, the binding entry in assay [3] is “binds”.

B3: MsTAG (Ms5082) expressed in M. smegmatis (enzyme, UniProt A0R2E4 1-209)
chain: T1 sequence
Consider B3, for which the binding entry in assay [3] is “binds”.
